Measured values: article PMC11997035
These are yes or no findings as the source states them, for the method shown. In cells and extracts the contact can be indirect. Some results given as binding are weak or reduced against the parent protein; the word gives no strength.

Protein sequences, listed by entry. Tags and fused reporters are not part of them.
UniProt P61006: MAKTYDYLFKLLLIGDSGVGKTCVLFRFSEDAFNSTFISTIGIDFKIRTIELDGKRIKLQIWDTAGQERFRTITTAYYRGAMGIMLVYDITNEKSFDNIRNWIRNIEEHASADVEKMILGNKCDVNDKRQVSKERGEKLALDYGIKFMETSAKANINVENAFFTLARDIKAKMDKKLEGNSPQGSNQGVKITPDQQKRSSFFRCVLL
UniProt Q15836: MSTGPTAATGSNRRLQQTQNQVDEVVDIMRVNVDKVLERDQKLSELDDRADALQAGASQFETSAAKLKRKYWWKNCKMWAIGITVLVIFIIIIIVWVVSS

T1: CD73 (bait for binding partners in TNBC cells) (human) (UniProt P21589)
T1 sequence: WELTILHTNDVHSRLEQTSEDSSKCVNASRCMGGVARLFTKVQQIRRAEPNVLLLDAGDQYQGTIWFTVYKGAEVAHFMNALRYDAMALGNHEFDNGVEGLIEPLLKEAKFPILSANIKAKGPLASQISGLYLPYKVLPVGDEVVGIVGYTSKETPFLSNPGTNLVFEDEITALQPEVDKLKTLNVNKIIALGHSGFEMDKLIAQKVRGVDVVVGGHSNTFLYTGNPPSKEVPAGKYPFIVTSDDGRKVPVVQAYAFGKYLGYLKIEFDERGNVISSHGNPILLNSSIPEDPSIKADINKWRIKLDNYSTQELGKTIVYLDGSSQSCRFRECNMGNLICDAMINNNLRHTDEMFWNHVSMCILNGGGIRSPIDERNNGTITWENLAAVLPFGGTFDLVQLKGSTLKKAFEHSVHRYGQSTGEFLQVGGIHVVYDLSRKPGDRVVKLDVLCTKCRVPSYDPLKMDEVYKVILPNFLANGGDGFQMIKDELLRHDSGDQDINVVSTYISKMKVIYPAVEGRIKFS

T2: MGAT1 220–445 (human) (UniProt P26572)
T2 sequence: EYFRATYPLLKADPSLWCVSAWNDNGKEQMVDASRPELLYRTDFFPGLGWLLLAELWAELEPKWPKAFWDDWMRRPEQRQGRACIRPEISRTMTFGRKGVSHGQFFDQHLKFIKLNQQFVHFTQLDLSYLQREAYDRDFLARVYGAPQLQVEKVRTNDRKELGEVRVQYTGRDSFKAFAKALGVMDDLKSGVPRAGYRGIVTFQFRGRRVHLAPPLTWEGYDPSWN


Assays:
[1] = molecular target: T1, CD73 (bait for binding partners in TNBC cells) (human); assay: proximity ligation; proximity ligation assay of CD73 with vesicle-associated proteins (Supplementary Fig. 8a-c)
[2] = molecular target: T1, CD73 (bait for binding partners in TNBC cells) (human); assay: co-IP; co-immunoprecipitation of CD73 with vesicle-associated proteins (Supplementary Fig. 8a-c)
MGAT1 220–445 (human) = molecular target: T2, MGAT1 220–445 (human); assay: co-IP; Flag/HA-tagged truncation and deletion constructs of MGAT1 or CD73 co-transfected with the partner into HEK-293T cells; immunoblot

Molecule | binding [1] | binding [2] | binding (MGAT1 220–445 (human))
CD73 (co-transfected with MGAT1 fragments) (enzyme, UniProt P21589 27-549) WELTILHTNDVHSRLEQTSEDSSKCVNASRCMGGVARLFTKVQQIRRAEPNVLLLDAGDQYQGTIWFTVYKGAEVAHFMNALRYDAMALGNHEFDNGVEGLIEPLLKEAKFPILSANIKAKGPLASQISGLYLPYKVLPVGDEVVGIVGYTSKETPFLSNPGTNLVFEDEITALQPEVDKLKTLNVNKIIALGHSGFEMDKLIAQKVRGVDVVVGGHSNTFLYTGNPPSKEVPAGKYPFIVTSDDGRKVPVVQAYAFGKYLGYLKIEFDERGNVISSHGNPILLNSSIPEDPSIKADINKWRIKLDNYSTQELGKTIVYLDGSSQSCRFRECNMGNLICDAMINNNLRHTDEMFWNHVSMCILNGGGIRSPIDERNNGTITWENLAAVLPFGGTFDLVQLKGSTLKKAFEHSVHRYGQSTGEFLQVGGIHVVYDLSRKPGDRVVKLDVLCTKCRVPSYDPLKMDEVYKVILPNFLANGGDGFQMIKDELLRHDSGDQDINVVSTYISKMKVIYPAVEGRIKFS |  |  | binds
RAB13 (protein, UniProt P51153 1-203) MAKAYDHLFKLLLIGDSGVGKTCLIIRFAEDNFNNTYISTIGIDFKIRTVDIEGKKIKLQVWDTAGQERFKTITTAYYRGAMGIILVYDITDEKSFENIQNWMKSIKENASAGVERLLLGNKCDMEAKRKVQKEQADKLAREHGIRFFETSAKSSMNVDEAFSSLARDILLKSGGRRSGNGNKPPSTDLKTCDKKNTNKCSLG | binds | binds | 

Other lines, results leading:

binding [1] | binding [2] | binding (MGAT1 220–445 (human)) | Molecule
binds | binds |  | RAB8A (from UniProt P61006 1-207)
binds | binds |  | VAMP3 (from UniProt Q15836 1-100)
